This is an account of results in paper PMC11492288.

This assay has as its target T1, NLRP10-FLAG (human) (UniProt Q86W26).
T1 sequence: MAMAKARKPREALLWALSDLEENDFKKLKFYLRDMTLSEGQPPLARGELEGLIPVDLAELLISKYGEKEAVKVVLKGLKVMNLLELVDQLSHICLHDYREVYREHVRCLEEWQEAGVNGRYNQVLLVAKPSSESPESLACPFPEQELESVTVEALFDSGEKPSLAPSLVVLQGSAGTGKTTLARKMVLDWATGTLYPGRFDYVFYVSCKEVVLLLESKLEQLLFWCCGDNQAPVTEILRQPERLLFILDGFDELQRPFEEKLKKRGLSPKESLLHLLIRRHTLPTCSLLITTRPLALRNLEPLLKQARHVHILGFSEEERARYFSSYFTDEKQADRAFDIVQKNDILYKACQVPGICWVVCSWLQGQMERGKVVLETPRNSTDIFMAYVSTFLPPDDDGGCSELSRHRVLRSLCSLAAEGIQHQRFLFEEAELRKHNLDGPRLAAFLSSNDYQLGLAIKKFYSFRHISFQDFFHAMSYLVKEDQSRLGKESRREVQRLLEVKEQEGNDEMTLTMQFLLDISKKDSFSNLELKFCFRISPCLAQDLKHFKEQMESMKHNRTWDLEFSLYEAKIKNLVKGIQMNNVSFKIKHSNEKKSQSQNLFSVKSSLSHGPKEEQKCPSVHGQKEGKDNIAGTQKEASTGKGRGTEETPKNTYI
The experiment in a line: co-IP; NLRP10-FLAG co-transfected with caspase-HA constructs in 293T cells; IP lysis/wash buffer, 1 mg total lysate; pulled down with anti-FLAG resin, eluted with FLAG peptide; Western blot. (In western blotting, separated proteins are transferred to a membrane and probed.)

No constants are given. Whether binding was seen depends on the method and setting. In cells and extracts the contact can be indirect. Binding can be weak; no strength is given. Sequences can lack the tags named with a protein.

Take “catalytic domain of caspase-1 (domain or fragment)”: the binding entry is reported as “binds”. In the case of “pro-domain of caspase-8 consisting of two tandem death-effector domains (tDEDs) (domain or fragment)”, the binding result is “binds”.
